Here are results for one molecule from PMC11329700.

Results are given in words; binding and its absence hold for the method and conditions named. Binding seen in cells or lysates may run through a third protein. For some assays here: Binding can be weak; no strength is given.

Assay [1] has as its target GST-Dyn1xA-PRR 751-798 (rat). In words: pull-down; GST fusion proteins on GSH-sepharose beads incubated with pre-cleared rat brain synaptosomal lysate (20 mM Tris pH 7.4, 150 mM NaCl, 1% Triton X-100, 1 mM EDTA, 1 mM EGTA) at 4 °C for 1 h; bound proteins by Coomassie stain or Western blot (some blots quantified by densitometry); only the target purified. (In general: Immunoblotting shows a protein as a band on a membrane.)

Assay [2] deals with GST-Dyn1xB-PRR (dynamin 1xB proline-rich region, amino acids 746-851) (rat). The assay is described as above.

B1: Amphiphysin 1 (protein, UniProt O08838 1-683)
chain: MADIKTGIFAKNVQKRLNRAQEKVLQKLGKADETKDEQFEEYVQNFKRQEAEGTRLQRELRGYLAAIKGMQEASMKLTESLHEVYEPDWYGREDVKMVGEKCDVLWEDFHQKLVDGSLLTLDTYLGQFPDIKNRIAKRSRKLVDYDSARHHLEALQSSKRKDESRISKAEEEFQKAQKVFEEFNVDLQEELPSLWSRRVGFYVNTFKNVSSLEAKFHKEIAVLCHKLYEVMTKLGDQHADKAFSIQGAPSDSGPLRIAKTPSPPEEASPLPSPTASPNHTLAPASPAPVRPRSPSQTRKGPPVPPLPKVTPTKELQQENIINFFEDNFVPEINVTTPSQNEVLEVKKEETLLDLDFDPFKPDVTPAGSAAATHSPMSQTLPWDLWTTSTDLVQPASGGSFNDFTQPQDTSLFTMQTDQNMAETEQALPTEPQAEEPPTTAAAPTAGLDLGLEMEEPKEEAAIPPGTDAGETVGTEGSTGEEAEAEKAALPAGEGESPEGAKIDVESTELASSESPQAAELEAGAPQEKVIPSVVIEPASNHEGEEHQETTTGTETREATEDVAPQGPAGEKQELATEPTPLDSQAATPAPAGAVDASLSAGDAAQELPPGFLYKVETLHDFEAANSDELTLQRGDVVLVVPSDSEADQDAGWLVGVKESDWLQYRDLATYKGLFPENFTRHLE
As to B1, the figures for the binding entry in assay [1] and in assay [2] were “no binding” and “binds”, respectively.
